According to patent US8071535B2 (The Regents of the University of California, priority 2003, dated 2011):

What was measured:
[1] = general procedure: Fmoc solid-phase peptide synthesis; Fmoc PAL PEG PS resin (PerSeptive Biosystems); conditions: conjugation step, 1H NMR, trifluoroacetic acid salt (peptide); hydrochloride (conjugate)
[2] = general procedure: Fmoc solid-phase peptide synthesis; Fmoc PAL PEG PS resin; conditions: whole synthesis, scale 0.15 mmole, TFA salt

For “BODIPY-Cys(Arg)9 hydrochloride (CRRRRRRRRR; N-acetyl, C-amide, BODIPY on Cys)”, the “final purity (method not given)” value [1] was “better than 95%”.
ace-CRRRRRRRRR-am trifluoroacetic acid gave an isolated mass [2] of 40 mg and an isolated yield [2] of 10%.
